Measurements published in article PMC11781186.
These are yes or no findings as the source states them, for the method shown. In cells and extracts the contact can be indirect. These calls come from enrichment with a bait or labelling near it, and not all partners need be listed.

Chains of the proteins cited; added tags and fusions are not shown. Residues count along the entry.
UniProt P29317, residues 24-976: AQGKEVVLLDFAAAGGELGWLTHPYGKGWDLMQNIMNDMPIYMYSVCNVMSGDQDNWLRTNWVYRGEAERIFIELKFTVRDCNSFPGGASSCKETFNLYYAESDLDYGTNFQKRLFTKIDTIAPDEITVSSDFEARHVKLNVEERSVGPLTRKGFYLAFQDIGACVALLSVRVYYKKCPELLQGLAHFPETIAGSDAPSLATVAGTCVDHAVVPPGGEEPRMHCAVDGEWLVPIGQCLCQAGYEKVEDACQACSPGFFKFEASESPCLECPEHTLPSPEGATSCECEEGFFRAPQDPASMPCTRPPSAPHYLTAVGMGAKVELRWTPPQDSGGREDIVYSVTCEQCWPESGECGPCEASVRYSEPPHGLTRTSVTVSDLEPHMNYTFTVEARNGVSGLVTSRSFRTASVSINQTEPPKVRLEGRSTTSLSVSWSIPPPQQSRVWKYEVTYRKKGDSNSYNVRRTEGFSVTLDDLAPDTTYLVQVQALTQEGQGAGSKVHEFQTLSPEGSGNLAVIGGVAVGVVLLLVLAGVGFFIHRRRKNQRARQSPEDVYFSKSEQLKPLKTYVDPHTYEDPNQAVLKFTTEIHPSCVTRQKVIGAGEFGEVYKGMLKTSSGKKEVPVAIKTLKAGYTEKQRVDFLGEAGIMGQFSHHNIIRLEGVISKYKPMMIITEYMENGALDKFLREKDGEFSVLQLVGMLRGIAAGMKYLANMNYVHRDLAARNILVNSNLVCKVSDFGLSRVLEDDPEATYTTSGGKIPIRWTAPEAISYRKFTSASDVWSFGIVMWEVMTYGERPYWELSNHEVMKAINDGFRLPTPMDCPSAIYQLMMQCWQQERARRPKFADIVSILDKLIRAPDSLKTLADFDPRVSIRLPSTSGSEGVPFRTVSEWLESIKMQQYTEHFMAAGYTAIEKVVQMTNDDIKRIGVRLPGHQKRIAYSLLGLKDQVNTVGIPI
UniProt P45974: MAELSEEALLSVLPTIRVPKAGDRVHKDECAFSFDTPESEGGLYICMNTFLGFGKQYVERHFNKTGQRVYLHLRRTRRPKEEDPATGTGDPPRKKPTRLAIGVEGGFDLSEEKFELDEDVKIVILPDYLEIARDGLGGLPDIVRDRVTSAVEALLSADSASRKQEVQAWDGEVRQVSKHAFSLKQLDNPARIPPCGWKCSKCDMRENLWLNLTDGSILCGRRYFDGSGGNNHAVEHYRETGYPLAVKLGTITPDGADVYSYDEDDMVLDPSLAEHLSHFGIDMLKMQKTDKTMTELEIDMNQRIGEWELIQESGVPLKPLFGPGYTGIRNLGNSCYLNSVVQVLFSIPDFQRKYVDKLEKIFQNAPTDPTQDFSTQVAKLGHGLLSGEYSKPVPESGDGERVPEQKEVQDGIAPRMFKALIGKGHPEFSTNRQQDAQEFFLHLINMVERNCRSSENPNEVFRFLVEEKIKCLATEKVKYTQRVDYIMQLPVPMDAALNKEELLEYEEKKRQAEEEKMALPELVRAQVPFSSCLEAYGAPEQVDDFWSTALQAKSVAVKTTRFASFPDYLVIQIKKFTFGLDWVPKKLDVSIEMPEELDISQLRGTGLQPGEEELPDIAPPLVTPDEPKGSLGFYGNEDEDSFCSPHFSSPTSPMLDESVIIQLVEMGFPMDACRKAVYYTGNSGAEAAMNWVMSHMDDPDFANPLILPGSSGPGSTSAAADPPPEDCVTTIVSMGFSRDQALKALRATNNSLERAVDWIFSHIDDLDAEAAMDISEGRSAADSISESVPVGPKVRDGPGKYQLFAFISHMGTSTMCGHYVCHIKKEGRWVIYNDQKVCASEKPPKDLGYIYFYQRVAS

Target: ephrinA2 receptor (EphA2), endogenous (human (endogenous in HK1 and 5-8F)) (UniProt P29317)
Assay: affinity purification with mass spectrometry; immunoprecipitation of EphA2 from NPC cells and mass spectrometry (IP-MS); USP5 peptide … matched by Mascot

- binding: binds
Substance: ubiquitin specific peptidase 5 (USP5), endogenous (from UniProt P45974 1-858) (enzyme)
